From PMC3521718, “Histone Deacetylase HDA6 Is Functionally Associated with AS1 in Repression of KNOX Genes in Arabidopsis” (PLoS Genetics, 2012)
No constants are given. Whether binding was seen depends on the method and setting. Binding seen in cells or lysates may run through a third protein. Some entries that bind do so weakly or less than the wild type. Tags and fused reporters may be left off the sequences shown.

Target: T1, … LEAVES 2 (AS2) fused to a YFP fragment for BiFC (AS2-YN, AS2-YC) (Arabidopsis thaliana) (UniProt O04479)
T1 sequence: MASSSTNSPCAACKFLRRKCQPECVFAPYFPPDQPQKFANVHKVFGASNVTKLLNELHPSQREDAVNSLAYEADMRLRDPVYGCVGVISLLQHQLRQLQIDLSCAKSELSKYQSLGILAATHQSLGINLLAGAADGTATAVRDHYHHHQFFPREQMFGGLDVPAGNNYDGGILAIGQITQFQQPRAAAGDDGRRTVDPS
Assay: split reporter; BiFC with YN and YC fusions co-delivered by Agrobacterium GV3101 into N. benthamiana leaves; confocal microscopy

binding: binds
B1: … LEAVES 2 (AS2) fused to a YFP fragment for BiFC (AS2-YN, AS2-YC) (protein, UniProt O04479 1-199)
chain: MASSSTNSPCAACKFLRRKCQPECVFAPYFPPDQPQKFANVHKVFGASNVTKLLNELHPSQREDAVNSLAYEADMRLRDPVYGCVGVISLLQHQLRQLQIDLSCAKSELSKYQSLGILAATHQSLGINLLAGAADGTATAVRDHYHHHQFFPREQMFGGLDVPAGNNYDGGILAIGQITQFQQPRAAAGDDGRRTVDPS
